Data: PubChem BioAssay AID540276 (National Center for Advancing Translational Sciences (NCATS), 2011)
Several values for one entry are separate records, joined by “and”; a condition that tells them apart may be missing. Identical values can stand only once. Out of some 300,000 compounds screened, about 5,400 (1.8%) were called active. The inconclusive results got no clear call from the source; some entries with a clear call stand among them for comparison. Calls follow the shape of the full dose curve; tested in HEK293 cells. A potency beside an inconclusive call is a rough fit, not a confirmed value.

Assay: qHTS for inhibitors of binding or entry into cells for Marburg Virus
Conditions: Marburg virus pseudotyped entry inhibition, cell reporter; series mostly up to 37.8 µM
Potency is read from the fitted curve at half-maximal effect.

| Compound | Potency |
| --- | --- |
| COc1ccc(NC(=O)COc2ccccc2C#N)c(S(=O)(=O)N2CCCCC2)c1 | inconclusive: 12.6 µM [inhibitor, partial curve, poor fit] |
| O=C1CCC(C(=O)O)(c2ccccc2)C1 (stereo not given) | inactive |
| CCN(CC)S(=O)(=O)c1ccc(S(=O)(=O)Nc2c(C)nn(C)c2C)cc1 | inconclusive: 1.26 µM [inhibitor, single point] |
| Cc1ccc(-c2noc(C3CCCN(C(=O)c4ccc(F)cc4F)C3)n2)cc1 (stereo not given) | inactive |
| COc1cccc(C(=O)C2CN(c3ccccc3)CC2c2ccc(Cl)cc2)c1 (stereo not given) | inactive |
| O=c1c2ccccc2nc2n1C(CSCc1ccc(Cl)cc1)CS2 (stereo not given) | inconclusive: 5.62 µM [inhibitor, single point] |
| O=C(NCCc1ccccc1)C(=O)NCCC1CCCCN1S(=O)(=O)c1ccccc1 (stereo not given) | inactive |
| CCC(C)(C)NC(=O)C(c1ccc(OC)cc1)N(C(=O)CCC(=O)Nc1cc(C)on1)c1ccc(F)cc1 (stereo not given) | inconclusive: 22.4 µM [inhibitor, single point] |
| Cc1sc2nc(CSCC(=O)N(C)c3ccccc3)[nH]c(=O)c2c1C | inconclusive: 0.708 µM [inhibitor, full curve, poor fit] |
| O=C(CN1C(=O)NC2(CCc3ccccc3C2)C1=O)NCc1ccco1 (stereo not given) | inconclusive: 10 µM [activator, partial curve, poor fit] |
| CCOC(=O)c1c(NC(=O)CN2C(=O)NC(C)(c3ccc(Cl)cc3)C2=O)sc(C(=O)NC)c1C (stereo not given) | inconclusive: 35.5 µM [inhibitor, single point] |
| Cc1ccc(-c2noc(CCC(=O)Nc3ccccc3N3CCN(C)CC3)n2)cc1 | inconclusive: 35.5 µM [inhibitor, single point] |
| NS(=O)(=O)c1ccc(N=Cc2c(O)n(C3CCCCC3)c(=O)n(C3CCCCC3)c2=O)cc1 | inconclusive: 1.46 µM [inhibitor, partial curve, poor fit] |
| Cc1nc(N)c(S(=O)(=O)c2ccccc2)c(Nc2ccc(Br)cc2)n1 | inactive |
| CC(=O)Oc1ccc(C(=O)[C@H]2[C@H]3C(=O)N(c4cccc5ccccc45)C(=O)[C@H]3[C@@H]3C=CC=NN32)cc1 | inconclusive: 0.501 µM [inhibitor, single point] |
| C/C(=N\NC(=S)Nc1ccc(C)cc1)c1cccc(N)c1 | inactive |
| CC[C@@H]1CCCCN1c1nc(-c2cccc(OC)c2O)nc2ccccc12 | inconclusive: 29.1 µM [inhibitor, single point] |
| COc1ccc(NC(=O)c2ccco2)cc1NC(=O)COc1cc(C)ccc1C(C)C | inactive |
| COc1ccc(CC(=O)OC(C)CN2CCOCC2)cc1 (stereo not given) | inactive |
| COC(=O)c1ccc(N2C(=O)C3CC=CC(C)C3C2=O)cc1 (stereo not given) | inactive |
| O=Cc1ccc(OCc2nnc(-c3ccccc3Br)o2)cc1 | inconclusive: 15.8 µM [activator, single point] |
| c1ccc(-c2nnc(SCC3CCCO3)nc2-c2ccccc2)cc1 (stereo not given) | inactive |
| COc1ccc(N2CCN(C(c3cccc(OC)c3OC)c3nnnn3C3CCCC3)CC2)cc1 (stereo not given) | inconclusive: 5.62 µM [inhibitor, single point] |
| CCCCCCOc1ccc(NC(=O)CC2C(=O)N(CC)C(=S)N2Cc2ccco2)cc1 (stereo not given) | inconclusive: 11.2 µM [inhibitor, single point] |

| Compound | Potency |
| --- | --- |
| O=C(N/N=C/c1ccc(O)cc1)c1cc(C2CC2)[nH]n1 | inactive |
| COc1ccc(C/C(C)=N/NC(=O)c2cc(C)oc2C)cc1 | inconclusive: 7.31 µM [activator, partial curve] |
| CC(=O)c1cccc(NS(=O)(=O)c2c(C(=O)N3CCOCC3)c(C)n(C)c2C)c1 | inactive |
| NC(=O)c1cn(Cc2c(F)cccc2F)nn1 | inconclusive: 32.6 µM [activator, partial curve, poor fit] |
| O=C(NC1CCCCC1)C(c1cccnc1)N(C(=O)c1ccc(Cl)nc1)C1CCCCC1 (stereo not given) | inactive |
| CC1CCN(C(=O)CCc2nnc(-c3ccccc3)o2)CC1 | inactive |
| O=c1[nH]ncc(N/N=C\c2cccs2)c1Cl | inconclusive: 7.08 µM [inhibitor, partial curve, poor fit] |
| O=C(CSc1ncnc2sc3c(c12)CCC3)Nc1ccccc1C(=O)O | inactive |
| O=C(NC1CCCC1)c1cc(-c2ccccc2Cl)on1 | inconclusive: 35.5 µM [inhibitor, single point] |
| Cc1c(C)c(C)c(/C=[N+](/C)[O-])c(C)c1C | inconclusive: 0.731 µM [activator, full curve, poor fit] |
| CCOc1ccc(-n2c(=O)c3c4c(sc3n(CC(=O)NCCCOC)c2=O)CCCCC4)cc1 | inconclusive: 4.47 µM [inhibitor, single point] |
| CCN(CC)C(NC(=O)Cc1ccccc1)C(Cl)(Cl)Cl (stereo not given) | inconclusive: 1.16 µM [inhibitor, single point] |
| O=C1CN(S(=O)(=O)c2ccccc2)CCN1S(=O)(=O)c1ccccc1 | inconclusive: 5.62 µM [activator, single point] |
| O=C(NNC(=S)NC1CC2CCC1C2)c1ccc(Cl)cc1 (stereo not given) | inconclusive: 6.31 µM [activator, single point] |
| Cc1ccc(C(=O)NCc2cccc(C(F)(F)F)c2)cc1S(=O)(=O)N1CCCCC1 | inactive |
| CC(=O)c1c(C)[nH]c(C(=O)OCC(=O)N2CCc3ccccc32)c1C | inconclusive: 35.5 µM [inhibitor, single point] |
| O=C(Nc1ccc(N2CCN(C(=O)c3ccccc3)CC2)cc1)c1cc2ccccc2o1 | inconclusive: 8.91 µM [inhibitor, partial curve, poor fit] |
| Cc1ccc(S(=O)(=O)O/N=C2\CCCc3ccccc32)cc1 | inactive |
| CCOC(=O)C(CSCc1ccccc1)NC(=O)OC(C)(C)C (stereo not given) | inconclusive: 10 µM [activator, partial curve, poor fit] |
| COc1ccc(OCCCC(=O)OC(C)C(=O)Nc2ccc(C)cc2)cc1 (stereo not given) | inactive |
| CCCCC/S(CC1CC1(Cl)Cl)=N\S(=O)(=O)c1ccc(C)cc1 (stereo not given) | inconclusive: 22.4 µM [inhibitor, single point] |
| COc1ccc(OC)c(NC(=O)c2cccc(S(=O)(=O)N(Cc3ccccc3)c3ccccc3OC)c2)c1 | inconclusive: 1.41 µM [inhibitor, full curve, poor fit] |
| Cc1cccc(-n2cnc3c(c2=O)c2nc4ccccc4nc2n3Cc2ccco2)c1 | inconclusive: 6.31 µM [activator, single point] |
| COC(=O)c1c(C)[nH]c(C(=O)/C=C/c2ccc(Cl)cc2)c1C | inconclusive: 17.8 µM [inhibitor, partial curve, poor fit] |

| Compound | Potency |
| --- | --- |
| Cc1ccc2c(c1)-c1c(cnn1CC(=O)N1CCN(c3cccc(C(F)(F)F)c3)CC1)CO2 | inactive |
| COc1ccc(C/C(N)=N/OC(=O)COc2ccccc2C)cc1 | inactive |
| CNC(=O)NC(=O)CSc1ccc(S(=O)(=O)N(C)C2CCCCC2)cn1 | inactive |
| CCCCCCNCc1c(F)cccc1Cl | inactive |
| COc1ccc(NC(=O)C(=O)N/N=C/c2cccnc2)cc1 | inactive |
| Nc1nc2ccccc2n1/N=C/c1ccc([N+](=O)[O-])s1 | inconclusive: 5.62 µM [inhibitor, full curve, poor fit] |
| C=CCNC(=O)COC(=O)CCC(=O)c1cccs1 | inconclusive: 0.73 µM [inhibitor, full curve, poor fit] |
| O=Cc1cn(CCCOc2ccccc2)c2ccccc12 | inconclusive: 29.1 µM [inhibitor, single point] |
| Cc1ccc(NC(=O)CN2CC(C)SC2=NC2CCCCC2)cc1 (stereo not given) | inconclusive: 15.8 µM [inhibitor, single point] and inconclusive: 5.62 µM [inhibitor, full curve, poor fit] |
| CN1CCN(C(=S)Nc2ccc([N+](=O)[O-])cc2)CC1 | inactive |
| Cc1nc2sc(C(c3ccco3)N3CCN(C(c4ccccc4)c4ccccc4)CC3)c(O)n2n1 (stereo not given) | inactive |
| COCCOC(=O)Cn1nnc2sc(-c3ccccc3)cc2c1=O | inactive |
| CCOc1ccc(Oc2ccccc2NC(=O)C2=COCCO2)cc1 | inconclusive: 35.5 µM [inhibitor, single point] |
| CCN(CC)S(=O)(=O)c1csc(C(=O)NC2CCCCC2)c1 | inconclusive: 6.51 µM [inhibitor, partial curve, poor fit] |
| COc1cccc(NC(=S)N2CCC(c3ccc(C)cc3)C2)c1 (stereo not given) | inconclusive: 35.5 µM [inhibitor, single point] |
| CC(/C=N/NC(=O)CSc1nc2ccccc2n1C)=C\c1ccco1 | inconclusive: 0.112 µM [inhibitor, partial curve, poor fit] |
| O=C(COc1ccc(S(=O)(=O)N2CCCC2)cc1)NCc1cccnc1 | inactive |
| CCOc1ccc(NC(=O)c2cc(Cl)nc3ccccc23)cc1 | inconclusive: 3.98 µM [inhibitor, full curve, poor fit] |
| CCOc1ccc2nc(SCC#N)c(C#N)cc2c1 | inconclusive: 3.66 µM [inhibitor, single point] |
| CCN(c1cccc(C)c1)S(=O)(=O)c1ccc2c(c1)CCCN2C(C)=O | inconclusive: 2.24 µM [inhibitor, partial curve, poor fit] |
| Cn1c(=O)c2c(nc(SC3C(=O)CC(C)(C)CC3=O)n2C)n(C)c1=O | inactive |
| Cc1cccc(C(=O)N[C@H](C(=O)NCCc2ccc(S(N)(=O)=O)cc2)C(C)C)c1 | inconclusive: 0.316 µM [inhibitor, full curve, poor fit] |
